Assay [1] deals with T1, USP33 in HEK293T cell lysate (Figure 1D, Figure 1F) (human) (UniProt Q8TEY7).
T1 sequence: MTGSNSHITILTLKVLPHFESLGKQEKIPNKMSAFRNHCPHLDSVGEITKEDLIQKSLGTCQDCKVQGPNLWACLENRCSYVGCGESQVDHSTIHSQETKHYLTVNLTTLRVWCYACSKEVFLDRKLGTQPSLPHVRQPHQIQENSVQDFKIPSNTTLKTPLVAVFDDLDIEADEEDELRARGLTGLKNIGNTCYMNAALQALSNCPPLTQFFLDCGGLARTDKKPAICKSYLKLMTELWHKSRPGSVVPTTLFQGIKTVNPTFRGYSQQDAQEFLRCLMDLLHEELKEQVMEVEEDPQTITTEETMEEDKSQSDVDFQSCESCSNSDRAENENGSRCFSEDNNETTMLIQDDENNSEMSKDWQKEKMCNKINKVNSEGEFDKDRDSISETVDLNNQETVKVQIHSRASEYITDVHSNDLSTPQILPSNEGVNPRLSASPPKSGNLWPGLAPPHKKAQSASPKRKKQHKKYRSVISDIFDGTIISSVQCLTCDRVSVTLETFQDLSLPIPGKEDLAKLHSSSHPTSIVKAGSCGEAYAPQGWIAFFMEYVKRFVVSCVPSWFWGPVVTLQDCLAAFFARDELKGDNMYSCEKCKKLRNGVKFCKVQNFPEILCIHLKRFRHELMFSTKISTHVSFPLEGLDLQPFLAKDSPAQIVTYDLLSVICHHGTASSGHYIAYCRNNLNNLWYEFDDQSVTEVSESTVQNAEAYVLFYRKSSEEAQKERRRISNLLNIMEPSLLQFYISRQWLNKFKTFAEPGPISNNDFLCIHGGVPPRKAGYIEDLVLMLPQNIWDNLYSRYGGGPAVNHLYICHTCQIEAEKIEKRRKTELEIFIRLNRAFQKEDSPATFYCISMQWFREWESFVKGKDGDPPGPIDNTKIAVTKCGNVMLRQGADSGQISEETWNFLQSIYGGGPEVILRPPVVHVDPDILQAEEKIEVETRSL
In words: co-IP.

Amino acid sequences for entries named in this document (tags omitted).
UniProt P0DTC4: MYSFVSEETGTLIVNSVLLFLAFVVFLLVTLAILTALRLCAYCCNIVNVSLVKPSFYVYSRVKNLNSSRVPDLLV
UniProt P0DTD8: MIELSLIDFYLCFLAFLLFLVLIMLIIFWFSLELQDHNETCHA

In assay [2] the target is T2, USP33, endogenous in HeLa-ACE2 cells (human (endogenous in HeLa-ACE2)) (UniProt Q8TEY7).
T2 sequence: T1 sequence
Kind of assay: co-IP.

No constants are given. Whether binding was seen depends on the method and setting. In cells and extracts the contact can be indirect. Some binding calls cover weakened binding; strength is not graded here.

As to “SARS-CoV-2 membrane (M) protein (from UniProt P0DTC5 1-222)”, the binding result in assay [1] was “binds”.
Turning to “SARS-CoV-2 E protein made in infected cells (from UniProt P0DTC4 1-75)”, in assay [2], the binding entry is “binds”.
Take “SARS-CoV-2 ORF7b (from UniProt P0DTD8 1-43)”: the binding entry in assay [1] is listed as “binds”.
